# PubChem BioAssay AID1347423 (Functional Genomics Laboratory (NCATS/FGL), 2020)
# Hit rate of the full screen: of about 52,000 sequences, about 210 (0.4%) were called active.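 How the source made its calls: active means gene whose silencing raises cell survival under the drug, median off-target-corrected z-score across its silencing RNAs 2 or more; inactive means the rest.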 Some of the results follow.
# Assay: Resistance to Poly (ADP-Ribose) Polymerase inhibitor: Gene Identification via Genome-wide siRNA Screen
# Settings: mouse BRCA2 R2336H ES cells, olaparib, CellTiter-Glo viability; active compounds read high
# Procedure, shortened: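 Genome-wide siRNA screen (3 siRNAs/gene, 20 nM) in mouse ES cells carrying hypomorphic BRCA2 R2336H; olaparib 500 nM added 48 h post-transfection, CellTiter-Glo viability 72 h later. Normalized to plate-median negative control; MAD z-scores, gene median, seed-adjusted.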
row,Sequence,z-score
1,GGUCCUUUUUUCAACCAGCTT against Sh3gl1,inactive: -0.138
2,CCAGAAUGGCGGGUAUUUGTT against Fbln5,inactive: 1.18
3,CGAGGAGCUAGCUGUAAAUTT against Gsc,inactive: 0.776
4,CCUCAACUCCGACAAACAGTT against D8Wsu49e,inactive: 1.76
5,GGCCUCUGUCAUUUUAAAGTT against 2410008J05Rik,inactive: 0.773
6,GCUUCAAAACAAACCCUUGTT against 5330431N24Rik,inactive: -0.118
7,GCACCUCAAAAGAAUUCAUTT against 9430099J10Rik,inactive: 2.13
8,GGCGUGUUUGCUAAUUUAUTT against Pkd1,inactive: -0.387
9,GCUAUGCUGUUUUAUGUGATT against Synpr,inactive: 0.895
10,GGGAGACGGCGAGGUUUUATT against Arl6ip4,inactive: 0.237
11,GGAAGUAAAGCUCUACAAGTT against Vps28,inactive: 0.804
12,GGGAGGAAGAUGAUCCGGUTT against 1810008A14Rik,inactive: -0.585
13,GGACUAUUCAAACCUAUAUTT against B230358A15Rik,inactive: -2.95
14,CGGCAUUCAGAUUGUCUCUTT against Nup210,inactive: 1.01
15,GGAACUGCCUGAAAAAAUGTT against Dcn,inactive: 0.145
16,GGCAGAAUUUCAGCAACCUTT against Asgr1,inactive: 2.62
17,GGAUAUUUUUAGUGUCUUGTT against 9330120H11Rik,inactive: 1.23
18,GGCCAUCACUAUUAGCCUCTT against V1rl1,inactive: 0.886
19,GGAAUUGAACAUCAUUUGCTT against Suox,inactive: 1.07
20,GGAUCAUACCAUACUGGCCTT against 2900041A09Rik,inactive: -0.106
21,GGCCUUGGGCAUACUCAACTT against Star,inactive: 1.36
22,GGAGAGACAGAGACAAAAUTT against Trim26,inactive: -0.814

row,Sequence,z-score
1,GCAUGGAGGAAACCAUUAGTT against Slc38a3,inactive: -0.521
2,GAUUACCCAACGUACAGCUTT against Kb37,inactive: -0.935
3,GGAGUAUGCGUACCUGAAGTT against Nr0b2,inactive: -1.68
4,GCAGAUGGAAUUCACCGAATT against D330038K10Rik,inactive: -0.559
5,GCCUGUACAUCAUGCGUGUTT against Rprm,inactive: 0.803
6,CCUGAUGUGAAGAAAUCAATT against Akap10,inactive: 3.2
7,GCCAAAAACGGGCAUAUUGTT against Fech,inactive: 0.319
8,GGCUACAACCUGAAAGAUGTT against 2900026H06Rik,inactive: -0.0657
9,GGAGAGACCACCUUUUGCUTT against AI837181,inactive: -0.312
10,GGACCUAAGGGAUCUAUUGTT against Col5a3,inactive: -2.28
11,GGAAGUCAUUCUUGAGAAGTT against 1700001E04Rik,inactive: -0.325
12,CCUCUAGCUCCUAACCAUUTT against 6030498E09Rik,inactive: -0.965
13,GUACGAAGACUUCUCUAGUTT against 5730557B15Rik,inactive: 1
14,CCCUCAUGACAGCUUCGCATT against 5430401O09Rik,inactive: 1.14
15,GGCACAAACAUGUGUUCUATT against V1rd3,inactive: -0.358
16,GGGAAUCACCCUGAGAAAGTT against Ccndbp1,inactive: -2.07
17,GGCUGAGGCAGCACUUACUTT against Jph3,inactive: -0.0706
18,CCUCGUGUGGAAUUUGAUCTT against Mug1,inactive: 0.0166
19,GCCACUUAAUGUCACUUUATT against Bag2,inactive: 0.324
20,CCCUCACAGUAACCUGUCGTT against Espl1,inactive: -1.17
21,CCUUGUUUCUAUCAAGACUTT against Scamp1,inactive: 0.732
22,GGACUUCACUGAAGAUUCATT against Acbd4,inactive: 0.158

row,Sequence,z-score
1,GGAAGCAACAUGGAUACUATT against Evi1,inactive: 0.69
2,GGCAGUGUGAAGACAUUGATT against Scube1,inactive: -1.5
3,UCUACAAGUGGAUCACGGATT against Foxj1,inactive: 0.906
4,CCCAGAGACCUUUAUCAAUTT against Fbxl14,inactive: 0.541
5,GGGCGUAAUUAAGAAGGAATT against C230008H04Rik,inactive: -0.485
6,UCUCUGUUCUGUAUACAGUTT against Olfr1414,inactive: -0.3
7,GGCUGUUGUGGAUUUUCUCTT against Olfr698,inactive: 0.358
8,GGACUUUUGUGUAUAGUUATT against Smad1,inactive: 0.131
9,GGAAACUAAUUUCAAGCCUTT against Hat1,inactive: 0.356
10,GGAGCUGAAAUCCUUUGUUTT against Dnttip1,inactive: 0.457
11,GGCAAAAGAUAUAAGCGGUTT against Mbd3l2,inactive: -0.965
12,GGUUUUGGAUUUGUGACUATT against Elavl2,inactive: -0.463
13,CCACCCACUAAACCUAAAUTT against Pcolce,inactive: -0.139
14,GGAGAUGCCUUCCAGAUUCTT against Pcdh12,inactive: 2.59
15,GGUCUUCUCUACCUGCUCCTT against Olfr796,inactive: 1.04
16,CCGGGAGAAUCAUCGAGAUTT against 1110020C03Rik,inactive: -1.49
17,GCCACCUUAACAUUAGCCUTT against 1700012B18Rik,inactive: 0.247
18,GCAGCCAAAUUCAUCCUCATT against 1300010A20Rik,inactive: -2.01
19,GCCAUGCUAGUUUGAUACCTT against Bmp4,inactive: 1.09
20,GGGAUUUUUCCCUUAAUUCTT against Smad4,inactive: -0.0953
21,GGAAUGGAGAGAUCAGUAGTT against Cox7b,inactive: -1.43
22,GGAGAACUGUCAGAACGAGTT against Gpx2,inactive: -2.7

# An excerpt of these results, with bars between the fields:
row | Sequence | z-score
11 | GGCAAAAGAUAUAAGCGGUTT against Mbd3l2 | inactive: -0.965
12 | GGUUUUGGAUUUGUGACUATT against Elavl2 | inactive: -0.463
13 | CCACCCACUAAACCUAAAUTT against Pcolce | inactive: -0.139
14 | GGAGAUGCCUUCCAGAUUCTT against Pcdh12 | inactive: 2.59
15 | GGUCUUCUCUACCUGCUCCTT against Olfr796 | inactive: 1.04
16 | CCGGGAGAAUCAUCGAGAUTT against 1110020C03Rik | inactive: -1.49
17 | GCCACCUUAACAUUAGCCUTT against 1700012B18Rik | inactive: 0.247
18 | GCAGCCAAAUUCAUCCUCATT against 1300010A20Rik | inactive: -2.01
19 | GCCAUGCUAGUUUGAUACCTT against Bmp4 | inactive: 1.09
20 | GGGAUUUUUCCCUUAAUUCTT against Smad4 | inactive: -0.0953
21 | GGAAUGGAGAGAUCAGUAGTT against Cox7b | inactive: -1.43
